Laboratory results published in article PMC7862700.
This is a selection; strong and weak results do not stand in their true shares. For some of these results: At the low end of the ranking, values are background and their order means little. This is one part of the list. For some of these results: The source does not settle which construct or isoform was used.

Sequences of proteins named here, by UniProt entry; tags and fusion partners are left off. A change or cut given only in a name is not applied to a line headed by its entry.
UniProt Q00613: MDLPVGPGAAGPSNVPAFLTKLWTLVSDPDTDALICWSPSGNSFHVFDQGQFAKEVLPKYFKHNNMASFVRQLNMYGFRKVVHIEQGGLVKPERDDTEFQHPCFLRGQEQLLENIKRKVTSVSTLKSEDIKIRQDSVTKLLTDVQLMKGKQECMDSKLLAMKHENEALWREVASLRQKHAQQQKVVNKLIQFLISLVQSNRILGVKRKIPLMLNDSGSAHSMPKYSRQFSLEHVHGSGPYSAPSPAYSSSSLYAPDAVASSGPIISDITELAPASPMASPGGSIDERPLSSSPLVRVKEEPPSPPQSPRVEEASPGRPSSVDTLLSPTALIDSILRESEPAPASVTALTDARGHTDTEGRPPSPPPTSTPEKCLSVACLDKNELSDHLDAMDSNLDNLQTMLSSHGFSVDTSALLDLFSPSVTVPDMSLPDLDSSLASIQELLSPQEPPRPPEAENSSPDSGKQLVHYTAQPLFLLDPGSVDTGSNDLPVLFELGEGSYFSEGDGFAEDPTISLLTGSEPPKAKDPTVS

How the values were obtained:
[1] = biological target: HSF1 (UniProt Q00613); assay: DAPPL (digital affinity profiling via proximity ligation, sequencing); settings: 10 mM Tris-HCl pH 7.5, 50 mM NaCl, 1 mM DTT, 4% glycerol, room temperature, 30 min; GST-TFs on glutathione beads, 16-mer random dsDNA library, 0.1% …; high values mean tight binding; double strand, one strand shown; scale: fold enrichment (6-mer frequency, TF over GST control)
[2] = biological target: T1, ELF2 (UniProt Q15723); assay: as above; settings: 10 mM Tris-HCl pH 7.5, 50 mM NaCl, 1 mM DTT, 4% glycerol, room temperature, 30 min; GST-TFs on glutathione beads, 16-mer random dsDNA library, 0.1% …; high values mean tight binding; double strand, one strand shown; scale: fold enrichment (6-mer frequency, TF over GST control)
T1 sequence: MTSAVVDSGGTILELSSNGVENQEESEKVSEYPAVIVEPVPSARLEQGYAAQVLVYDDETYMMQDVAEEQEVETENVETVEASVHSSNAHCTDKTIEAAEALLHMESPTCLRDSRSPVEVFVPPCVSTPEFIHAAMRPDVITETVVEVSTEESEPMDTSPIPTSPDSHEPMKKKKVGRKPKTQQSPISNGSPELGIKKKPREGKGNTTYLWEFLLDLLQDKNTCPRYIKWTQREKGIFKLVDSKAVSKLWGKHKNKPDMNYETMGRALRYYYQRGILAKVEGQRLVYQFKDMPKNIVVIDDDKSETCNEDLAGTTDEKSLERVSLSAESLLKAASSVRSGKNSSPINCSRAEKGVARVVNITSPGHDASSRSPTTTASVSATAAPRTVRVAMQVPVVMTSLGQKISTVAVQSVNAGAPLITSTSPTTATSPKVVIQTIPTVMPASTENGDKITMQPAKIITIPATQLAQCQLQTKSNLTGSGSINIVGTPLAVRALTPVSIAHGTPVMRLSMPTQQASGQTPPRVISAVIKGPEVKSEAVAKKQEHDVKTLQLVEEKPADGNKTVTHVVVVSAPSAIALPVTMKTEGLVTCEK

Row | Sequence | binding signal [1] | binding signal [2]
1 | ATAGGT | 0.9 | 0.984
2 | GCACTG | 0.813 | 1.06
3 | ACTGGT | 0.952 | 1.02
4 | CACCTC | 0.911 | 1.07
5 | GCTATC | 0.891 | 1.04
6 | CTGTGG | 0.776 | 0.804
7 | CTGGTG | 0.859 | 0.94
8 | CGCACG | 0.914 | 0.967
9 | ATACGG | 0.906 | 1.44
10 | CCACAG | 0.828 | 0.891
11 | AGGTCC | 0.762 | 0.917
12 | GTCCTG | 0.856 | 1.14
13 | AGGCAC | 0.705 | 0.814
14 | CTGCTT | 1.53 | 1.76
15 | CGTCAA | 0.933 | 1.09
16 | GCCCCA | 0.863 | 0.956
17 | CCCGAA | 2.56 | 1.28
18 | TCTGAC | 1.07 | 1.15
19 | CACGGA | 0.768 | 1.32
20 | TTATAA | 1.79 | 1.15
21 | CCTGGC | 0.79 | 1.01

Row | Sequence | binding signal [1] | binding signal [2]
22 | GGCATA | 0.877 | 0.906
23 | TCCGCG | 0.965 | 1.51
24 | AACGGA | 0.723 | 1.13
25 | GATACA | 0.789 | 1.01
26 | GATTGC | 0.909 | 0.938
27 | GTTTGT | 0.822 | 1.03
28 | CGACGG | 0.853 | 0.96
29 | TGTTCC | 1.85 | 2.19
30 | TAGATA | 1.46 | 1.03
31 | TTAGGT | 1.28 | 1.05
32 | CTCTCT | 1.69 | 1.5
33 | ACGTCA | 0.757 | 0.939
34 | AGACTC | 0.964 | 0.878
35 | GTTCGT | 0.928 | 0.953
36 | TGTCAG | 0.765 | 0.865
37 | AGGGAA | 0.898 | 1
38 | AAGGTC | 0.868 | 0.891
39 | ACCTCA | 0.992 | 1.13
40 | CCCCGC | 0.912 | 1.08
41 | TAACGC | 1.28 | 1.12

Part of the list above in another layout.

| Row | Sequence | binding signal [1] | binding signal [2] |
| --- | --- | --- | --- |
| 23 | TCCGCG | 0.965 | 1.51 |
| 24 | AACGGA | 0.723 | 1.13 |
| 25 | GATACA | 0.789 | 1.01 |
| 26 | GATTGC | 0.909 | 0.938 |
| 28 | CGACGG | 0.853 | 0.96 |
| 29 | TGTTCC | 1.85 | 2.19 |
| 31 | TTAGGT | 1.28 | 1.05 |
| 32 | CTCTCT | 1.69 | 1.5 |
| 36 | TGTCAG | 0.765 | 0.865 |
| 37 | AGGGAA | 0.898 | 1 |
| 40 | CCCCGC | 0.912 | 1.08 |
| 41 | TAACGC | 1.28 | 1.12 |
